Reference: publication PMC3547798, “Binding of Nucleoid-Associated Protein Fis to DNA Is Regulated by DNA Breathing Dynamics”

Biological target: T1, Fis (Escherichia coli DH5alpha) (UniProt P0A6R3)
T1 sequence (looked up): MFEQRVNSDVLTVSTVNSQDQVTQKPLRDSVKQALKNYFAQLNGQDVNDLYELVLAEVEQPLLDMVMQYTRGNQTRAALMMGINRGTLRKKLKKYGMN
Test: EMSA
Conditions: salmon sperm DNA, 20 mM HEPES (pH not stated), 150 mM NaCl, 500 ug/mL BSA, 1 mM DTT, 0.1 mM EDTA, 0.5-1 ug/ul salmon sperm DNA, room temperature 30 min, recombinant protein, residues 1-98, label: 5'-biotin on forward strand

Sequence: AAATTTGTTTGAATTTTGAGCAAATTT / AAATTTGCTCAGCGCCCAAACAAATTT [FIS1-FIS2 hybrid]
- binding result (no detectable binding up to 0.75 uM Fis): no binding

Sequence: AAATTTGTTTGGGCGCTGAGCAAATTT (double strand) [FIS2]
- binding result (none at 0.25 uM, detected only at >=0.50 uM Fis): binds more weakly

Sequence: CGCTGTGCGTGAATTTTGCGCACGCTG (double strand) [FIS1S]
- binding result (complex detectable only at 0.75-1.0 uM Fis): binds more weakly

Sequence: AAATTTGTTTGGGCGCTGAGCAAATTT (double strand) [FIS2m3]
- binding result (barely detectable even at 1.0 uM Fis, O6-methylguanine at nt 12, 13 and 15 of strand 1 (positions -2, -1, +1)): binds more weakly

A negative result means that nothing was seen under these conditions. Where a protein sequence is shown, tags need not be part of it. Weaker means in comparison with the reference protein, sequence or condition of that experiment. For at least one entry, the source does not settle the construct or the ends of the probe.
